# Measurements as given in the supplement of paper PMC6411743.
# Protein sequences, listed by entry. Tags and fused reporters are not part of them. Lines headed by an entry give the natural chain unless they say otherwise; changes in a name come on top.
# UniProt Q9BUK0: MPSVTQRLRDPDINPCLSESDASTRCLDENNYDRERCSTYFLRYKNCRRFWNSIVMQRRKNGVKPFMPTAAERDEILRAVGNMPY
# UniProt Q92622: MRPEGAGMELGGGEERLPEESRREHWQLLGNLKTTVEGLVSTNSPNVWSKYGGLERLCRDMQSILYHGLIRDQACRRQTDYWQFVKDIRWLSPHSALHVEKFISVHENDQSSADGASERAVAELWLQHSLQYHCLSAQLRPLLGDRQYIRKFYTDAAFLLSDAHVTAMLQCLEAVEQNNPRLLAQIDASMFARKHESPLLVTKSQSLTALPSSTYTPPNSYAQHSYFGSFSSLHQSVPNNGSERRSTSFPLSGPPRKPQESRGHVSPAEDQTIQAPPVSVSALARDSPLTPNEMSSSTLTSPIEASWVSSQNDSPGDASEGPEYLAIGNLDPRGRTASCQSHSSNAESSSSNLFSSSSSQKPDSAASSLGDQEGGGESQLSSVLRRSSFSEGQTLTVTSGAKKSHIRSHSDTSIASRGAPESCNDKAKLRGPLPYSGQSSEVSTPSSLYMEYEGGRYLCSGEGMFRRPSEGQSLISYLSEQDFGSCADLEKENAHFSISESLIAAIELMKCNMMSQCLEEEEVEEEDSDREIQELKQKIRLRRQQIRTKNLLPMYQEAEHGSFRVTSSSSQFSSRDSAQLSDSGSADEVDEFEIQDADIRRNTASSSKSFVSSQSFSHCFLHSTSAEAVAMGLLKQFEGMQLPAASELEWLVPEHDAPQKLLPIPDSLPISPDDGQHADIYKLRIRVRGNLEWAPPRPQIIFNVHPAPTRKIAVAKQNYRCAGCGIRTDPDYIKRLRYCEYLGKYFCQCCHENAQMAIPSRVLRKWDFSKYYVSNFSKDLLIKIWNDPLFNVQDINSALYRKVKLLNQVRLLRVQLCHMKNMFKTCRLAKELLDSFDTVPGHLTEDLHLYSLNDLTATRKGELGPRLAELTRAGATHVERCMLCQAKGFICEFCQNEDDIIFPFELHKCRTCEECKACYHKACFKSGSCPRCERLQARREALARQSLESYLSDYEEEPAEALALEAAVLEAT
# UniProt P60510: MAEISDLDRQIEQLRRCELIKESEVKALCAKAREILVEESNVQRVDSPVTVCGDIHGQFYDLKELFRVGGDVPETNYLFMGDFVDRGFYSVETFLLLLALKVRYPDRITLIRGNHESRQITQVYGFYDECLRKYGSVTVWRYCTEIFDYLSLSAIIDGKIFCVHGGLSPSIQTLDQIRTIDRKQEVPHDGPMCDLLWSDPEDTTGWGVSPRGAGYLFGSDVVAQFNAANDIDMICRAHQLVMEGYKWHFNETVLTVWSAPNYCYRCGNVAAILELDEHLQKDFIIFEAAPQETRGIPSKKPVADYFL
# UniProt Q9BV68: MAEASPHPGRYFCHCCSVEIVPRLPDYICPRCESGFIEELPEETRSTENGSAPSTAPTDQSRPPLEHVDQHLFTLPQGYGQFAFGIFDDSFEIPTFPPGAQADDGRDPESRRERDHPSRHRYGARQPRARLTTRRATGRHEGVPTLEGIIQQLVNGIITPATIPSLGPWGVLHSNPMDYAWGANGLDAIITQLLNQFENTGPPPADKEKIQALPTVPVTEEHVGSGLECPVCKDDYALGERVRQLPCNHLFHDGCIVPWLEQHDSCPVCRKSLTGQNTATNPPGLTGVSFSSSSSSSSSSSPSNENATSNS
# UniProt Q9GZP9: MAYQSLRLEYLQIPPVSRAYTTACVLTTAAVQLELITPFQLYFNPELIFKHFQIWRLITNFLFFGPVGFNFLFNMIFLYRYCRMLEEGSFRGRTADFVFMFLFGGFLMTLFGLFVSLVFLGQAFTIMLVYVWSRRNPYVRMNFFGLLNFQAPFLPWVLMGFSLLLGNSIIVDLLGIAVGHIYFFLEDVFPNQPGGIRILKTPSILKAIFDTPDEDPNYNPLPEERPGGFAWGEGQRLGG
# UniProt P61769, whole entry: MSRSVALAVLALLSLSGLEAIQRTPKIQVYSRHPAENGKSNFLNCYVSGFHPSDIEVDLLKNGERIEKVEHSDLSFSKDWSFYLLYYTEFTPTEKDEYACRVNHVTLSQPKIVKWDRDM
# UniProt Q96JA3: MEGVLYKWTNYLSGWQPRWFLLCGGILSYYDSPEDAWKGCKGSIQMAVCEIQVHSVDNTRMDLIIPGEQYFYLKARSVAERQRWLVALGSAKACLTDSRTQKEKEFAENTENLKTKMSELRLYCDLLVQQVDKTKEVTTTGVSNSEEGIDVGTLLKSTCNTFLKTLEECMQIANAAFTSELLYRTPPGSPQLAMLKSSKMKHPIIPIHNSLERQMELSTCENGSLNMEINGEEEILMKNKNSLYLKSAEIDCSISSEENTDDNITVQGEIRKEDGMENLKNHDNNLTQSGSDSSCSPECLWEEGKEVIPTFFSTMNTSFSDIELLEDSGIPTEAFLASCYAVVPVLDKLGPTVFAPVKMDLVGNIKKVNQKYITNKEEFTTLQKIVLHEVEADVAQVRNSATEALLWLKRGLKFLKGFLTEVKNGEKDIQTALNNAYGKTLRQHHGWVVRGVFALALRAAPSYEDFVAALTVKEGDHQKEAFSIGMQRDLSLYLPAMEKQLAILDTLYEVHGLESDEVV
# UniProt Q9H9E3: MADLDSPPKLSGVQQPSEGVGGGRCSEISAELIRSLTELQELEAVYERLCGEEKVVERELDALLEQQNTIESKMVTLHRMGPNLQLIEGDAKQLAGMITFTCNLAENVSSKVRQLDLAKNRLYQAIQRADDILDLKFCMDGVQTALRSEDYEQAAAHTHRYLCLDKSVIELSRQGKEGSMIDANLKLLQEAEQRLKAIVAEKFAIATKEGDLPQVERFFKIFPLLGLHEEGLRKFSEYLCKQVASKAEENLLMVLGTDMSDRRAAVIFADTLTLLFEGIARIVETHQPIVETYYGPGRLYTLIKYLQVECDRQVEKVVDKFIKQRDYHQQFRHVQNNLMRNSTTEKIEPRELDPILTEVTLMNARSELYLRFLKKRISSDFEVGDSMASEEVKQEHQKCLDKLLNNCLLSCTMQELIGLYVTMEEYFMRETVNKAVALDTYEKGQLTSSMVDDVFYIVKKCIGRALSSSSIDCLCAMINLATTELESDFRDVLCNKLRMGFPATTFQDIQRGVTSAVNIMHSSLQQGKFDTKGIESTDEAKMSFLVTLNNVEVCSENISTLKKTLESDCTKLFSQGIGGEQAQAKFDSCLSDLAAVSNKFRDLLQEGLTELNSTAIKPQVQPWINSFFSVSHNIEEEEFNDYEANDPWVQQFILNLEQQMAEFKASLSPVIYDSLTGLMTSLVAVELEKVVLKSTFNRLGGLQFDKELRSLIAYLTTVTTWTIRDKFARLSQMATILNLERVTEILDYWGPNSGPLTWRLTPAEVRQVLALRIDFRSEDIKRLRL
# UniProt Q13620, whole entry: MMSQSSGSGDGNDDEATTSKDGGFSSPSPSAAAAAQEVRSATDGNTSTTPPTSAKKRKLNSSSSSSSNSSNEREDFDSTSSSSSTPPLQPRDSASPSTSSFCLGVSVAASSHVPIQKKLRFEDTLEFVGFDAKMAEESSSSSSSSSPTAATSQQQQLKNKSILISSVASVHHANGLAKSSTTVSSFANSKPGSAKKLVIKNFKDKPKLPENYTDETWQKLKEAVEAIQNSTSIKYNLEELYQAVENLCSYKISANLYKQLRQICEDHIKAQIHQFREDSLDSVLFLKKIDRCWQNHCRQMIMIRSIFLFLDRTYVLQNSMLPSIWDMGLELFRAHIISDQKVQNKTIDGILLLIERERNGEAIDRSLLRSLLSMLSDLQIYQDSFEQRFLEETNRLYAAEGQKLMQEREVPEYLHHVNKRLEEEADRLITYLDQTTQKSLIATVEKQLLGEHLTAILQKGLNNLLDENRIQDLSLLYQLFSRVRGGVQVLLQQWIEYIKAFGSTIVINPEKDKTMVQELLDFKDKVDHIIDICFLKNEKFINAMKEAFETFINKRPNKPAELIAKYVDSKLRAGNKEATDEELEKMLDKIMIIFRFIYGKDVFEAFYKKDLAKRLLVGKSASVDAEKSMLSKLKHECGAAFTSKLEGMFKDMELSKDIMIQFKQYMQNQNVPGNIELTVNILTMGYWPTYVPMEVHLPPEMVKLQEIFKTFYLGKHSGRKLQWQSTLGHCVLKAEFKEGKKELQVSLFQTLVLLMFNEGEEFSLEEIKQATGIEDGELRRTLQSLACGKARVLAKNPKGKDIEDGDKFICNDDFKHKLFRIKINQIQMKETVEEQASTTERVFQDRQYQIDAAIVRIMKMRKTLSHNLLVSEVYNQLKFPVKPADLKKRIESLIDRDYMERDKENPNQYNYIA
# UniProt O14734: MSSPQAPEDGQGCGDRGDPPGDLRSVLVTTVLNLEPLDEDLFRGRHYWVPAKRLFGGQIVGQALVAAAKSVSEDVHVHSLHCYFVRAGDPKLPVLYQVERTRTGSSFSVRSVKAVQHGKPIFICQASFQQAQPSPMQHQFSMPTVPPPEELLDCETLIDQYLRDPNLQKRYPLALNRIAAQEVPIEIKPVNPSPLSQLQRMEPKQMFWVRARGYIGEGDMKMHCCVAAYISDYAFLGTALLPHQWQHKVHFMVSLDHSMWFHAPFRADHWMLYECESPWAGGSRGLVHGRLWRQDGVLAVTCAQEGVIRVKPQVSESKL
# UniProt P35637: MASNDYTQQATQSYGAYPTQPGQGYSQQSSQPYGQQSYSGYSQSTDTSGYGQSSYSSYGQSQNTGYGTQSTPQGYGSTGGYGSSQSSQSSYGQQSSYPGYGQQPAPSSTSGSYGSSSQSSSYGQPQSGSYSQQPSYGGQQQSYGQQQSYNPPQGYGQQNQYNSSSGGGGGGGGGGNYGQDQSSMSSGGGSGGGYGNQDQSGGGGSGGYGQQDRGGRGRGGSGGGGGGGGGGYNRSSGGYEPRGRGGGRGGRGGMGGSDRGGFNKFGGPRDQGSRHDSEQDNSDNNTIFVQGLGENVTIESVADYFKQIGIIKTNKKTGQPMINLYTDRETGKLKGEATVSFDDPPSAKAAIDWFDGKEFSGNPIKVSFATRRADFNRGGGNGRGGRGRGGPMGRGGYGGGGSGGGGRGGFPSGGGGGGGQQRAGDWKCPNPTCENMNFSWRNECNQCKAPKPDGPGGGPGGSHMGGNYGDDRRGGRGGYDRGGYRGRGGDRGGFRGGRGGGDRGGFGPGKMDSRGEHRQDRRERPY
# UniProt Q99547: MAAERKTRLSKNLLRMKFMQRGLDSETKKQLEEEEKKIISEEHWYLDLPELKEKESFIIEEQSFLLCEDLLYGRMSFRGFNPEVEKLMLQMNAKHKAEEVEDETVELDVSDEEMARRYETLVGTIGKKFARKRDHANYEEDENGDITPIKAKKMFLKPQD
# UniProt Q96GQ5: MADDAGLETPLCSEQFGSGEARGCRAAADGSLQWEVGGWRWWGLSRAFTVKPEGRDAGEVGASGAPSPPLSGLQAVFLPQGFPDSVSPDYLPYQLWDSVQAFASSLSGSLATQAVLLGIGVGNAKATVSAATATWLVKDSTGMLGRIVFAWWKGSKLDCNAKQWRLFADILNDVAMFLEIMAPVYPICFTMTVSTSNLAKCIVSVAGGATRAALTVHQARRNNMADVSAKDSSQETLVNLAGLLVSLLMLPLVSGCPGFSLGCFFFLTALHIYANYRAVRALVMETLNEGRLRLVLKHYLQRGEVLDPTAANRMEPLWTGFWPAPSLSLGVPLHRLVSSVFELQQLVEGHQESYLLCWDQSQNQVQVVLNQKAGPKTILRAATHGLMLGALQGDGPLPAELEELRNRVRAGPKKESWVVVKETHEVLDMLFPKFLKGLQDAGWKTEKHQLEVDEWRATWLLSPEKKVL
# UniProt Q99933: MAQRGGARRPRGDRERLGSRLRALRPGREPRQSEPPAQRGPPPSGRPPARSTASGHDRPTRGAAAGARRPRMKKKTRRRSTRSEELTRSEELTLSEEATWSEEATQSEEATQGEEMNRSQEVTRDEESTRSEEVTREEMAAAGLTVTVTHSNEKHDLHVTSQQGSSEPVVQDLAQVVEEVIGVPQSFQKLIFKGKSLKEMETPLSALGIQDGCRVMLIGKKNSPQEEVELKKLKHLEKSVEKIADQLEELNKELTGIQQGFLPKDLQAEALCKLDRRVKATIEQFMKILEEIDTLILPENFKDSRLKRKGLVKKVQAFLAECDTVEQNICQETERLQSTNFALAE
# UniProt O43598: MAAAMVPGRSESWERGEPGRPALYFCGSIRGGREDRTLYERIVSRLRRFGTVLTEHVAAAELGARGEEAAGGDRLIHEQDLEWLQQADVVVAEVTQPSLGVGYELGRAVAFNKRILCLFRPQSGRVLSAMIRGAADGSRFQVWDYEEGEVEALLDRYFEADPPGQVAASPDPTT
# UniProt Q5TC12: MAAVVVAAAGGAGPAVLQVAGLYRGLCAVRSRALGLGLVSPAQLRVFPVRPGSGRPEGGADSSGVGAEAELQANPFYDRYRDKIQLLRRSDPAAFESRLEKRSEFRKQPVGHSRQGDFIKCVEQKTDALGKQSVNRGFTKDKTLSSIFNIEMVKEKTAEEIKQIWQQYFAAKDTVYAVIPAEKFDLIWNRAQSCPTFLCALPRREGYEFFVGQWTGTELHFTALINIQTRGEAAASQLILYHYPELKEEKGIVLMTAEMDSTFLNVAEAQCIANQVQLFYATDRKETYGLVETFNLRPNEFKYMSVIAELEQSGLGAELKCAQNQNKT
# ± gives the standard deviation of the averaged measurements. The list shows a part of the results, in another mix than the full data. Small differences around the control level are noise.
# Compound: Nc1ncnc2c1ncn2[C@@H]1O[C@H](COP(=O)(O)OP(=O)(O)NP(=O)(O)O)[C@@H](O)[C@H]1O [adenylyl imidodiphosphate]
# Test: NP40-soluble protein abundance relative to vehicle (solubility fold change) (ratio); higher = more soluble protein in presence of AMP-PNP
# Summary of the method: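 Eight concentrations, 0.1 to 10 mM, were tested on Jurkat crude lysate for 10 min at room temperature and then 3 min at 37 °C, in three independent experiments. The lysate was solubilised with 0.8% NP40 and benzonase, ultracentrifuged, and the supernatant TMT-labelled for LC-MS/MS. Each value is the fold change against the detergent-processed vehicle in its own replicate, from vsn-normalised intensities.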
Target,NP40-soluble protein abundance (concentration: 0.1mM),NP40-soluble protein abundance (concentration: 0.5mM)
J3KNN3 and related entries (UniProt P15735),1.057 ± 0.0059,1.02 ± 0.087
G3XAI9 and related entries (UniProt Q5BKY9),0.996 ± 0.053,1.01 ± 0.027
J3QL56 and related entries (UniProt O75880),0.984 ± 0.012,1.01 ± 0.043
G3XAN4 and related entries (UniProt Q15629),0.973 ± 0.022,1 ± 0.017
H7C5D9 and related entries (UniProt O75427),1 ± 0.09,0.996 ± 0.085
I3L3K7 and related entries (UniProt Q12968),0.98 ± 0.011,1.02 ± 0.019
I3L4X7 and related entries (UniProt Q13227),0.992 ± 0.054,1.05 ± 0.14
H7C0D5 and related entries (UniProt Q9BSR8),0.982 ± 0.055,0.971 ± 0.022
J3KMZ9 and related entries (UniProt P01130),0.962 ± 0.036,0.966 ± 0.019
I3L2B0 and related entries (UniProt O75153),1.02 ± 0.038,0.995 ± 0.032
J3KPS0 and related entries (UniProt Q9NXW2),1 ± 0.021,0.991 ± 0.015
J3QS69 and related entries (UniProt P60842),1.05 ± 0.046,1.06 ± 0.069
J3KPV1 and related entries (UniProt Q9BUK0),0.9972 ± 0.0042,0.9968 ± 0.0083
J3QRS3 and related entries (UniProt P19105+O14950+J3QRS3),1.05 ± 0.07,1.13 ± 0.087
J9JIE6 and related entries (UniProt Q9UM00),0.984 ± 0.037,1.02 ± 0.053
H3BTB7 and related entries (UniProt Q5JPH6),1.05 ± 0.033,0.985 ± 0.053
J3QTA6 and related entries (UniProt Q9BRQ6),1.01 ± 0.03,1 ± 0.06
H0Y6E6 and related entries (UniProt Q92622),0.996 ± 0.014,1.03 ± 0.057
H0Y659 and related entries (UniProt Q7Z6Z7),1.01 ± 0.011,1 ± 0.015
J3QS41 and related entries (UniProt P42694),0.99 ± 0.049,0.908 ± 0.036
G3V529 and related entries (UniProt Q9GZR7),1.01 ± 0.033,1.01 ± 0.039
H3BTA2 and related entries (UniProt P60510),0.979 ± 0.063,0.963 ± 0.1
J3KNQ6 and related entries (UniProt Q86VK4),1.018 ± 0.0029,1.042 ± 0.0033
H0YEU4 and related entries (UniProt Q03164),1.02 ± 0.056,1.01 ± 0.036

Target,NP40-soluble protein abundance (concentration: 0.1mM),NP40-soluble protein abundance (concentration: 0.5mM)
K7EIY6 and related entries (UniProt Q9BV68),0.995 ± 0.027,0.996 ± 0.034
J3QQV6 and related entries (UniProt Q9NVS9),0.979 ± 0.037,0.984 ± 0.012
H3BUV9 and related entries (UniProt Q96S82),1.05 ± 0.036,0.994 ± 0.035
J3KN10 and related entries (UniProt P42356),1.04 ± 0.061,1.03 ± 0.029
H0Y360 and related entries (UniProt Q01433),1.02 ± 0.017,1.008 ± 0.0054
I3L1T3 and related entries (UniProt Q9GZP9),1.02 ± 0.028,0.991 ± 0.029
H3BSW0 and related entries (UniProt Q8N9N7),0.991 ± 0.028,0.986 ± 0.033
H7C2F9 and related entries (UniProt Q15032),0.975 ± 0.028,0.965 ± 0.029
H0YL22 and related entries (UniProt Q9Y375),1.01 ± 0.025,1.01 ± 0.038
H3BMM5 and related entries (UniProt Q96AX1+H3BMM5),1.06 ± 0.042,0.992 ± 0.049
H0YN33 and related entries (UniProt Q9BW66),1.02 ± 0.037,1.09 ± 0.058
J3KPD3 and related entries (UniProt Q9Y580),0.961 ± 0.018,0.979 ± 0.027
H3BRQ0 and related entries (UniProt Q96CD2),0.971 ± 0.04,1 ± 0.037
H0Y6Y6 and related entries (UniProt P29017),0.9873 ± 0.0083,1 ± 0.025
H7C285 and related entries (UniProt O95858),0.975 ± 0.012,0.978 ± 0.033
H7C561 and related entries (UniProt Q15637),0.9705 ± 0.0034,1.01 ± 0.025
H0YLF3 and related entries (UniProt P61769),0.923 ± 0.2,0.935 ± 0.18
H7BY16 and related entries (UniProt P19338),0.941 ± 0.013,0.997 ± 0.07
J3KQS5 and related entries (UniProt Q96JA3),0.987 ± 0.015,0.976 ± 0.02
J3QRS9 and related entries (UniProt O43670),1.07 ± 0.091,1.03 ± 0.022
I6L8B7 and related entries (UniProt Q01469),0.997 ± 0.07,1.09 ± 0.085
H3BNX8 and related entries (UniProt P20674),1.04 ± 0.029,1.05 ± 0.073
G3XA86 and related entries (UniProt Q9Y2Z9),0.994 ± 0.018,1.01 ± 0.03
G5E9V4 and related entries (UniProt Q969F9),1 ± 0.017,0.997 ± 0.022

Target,NP40-soluble protein abundance (concentration: 0.1mM),NP40-soluble protein abundance (concentration: 0.5mM)
J3KQ48 and related entries (UniProt Q9Y3E5),1.02 ± 0.018,1.03 ± 0.032
J3KNI1 and related entries (UniProt Q9H9E3),1 ± 0.026,0.985 ± 0.011
J3KS22 and related entries (UniProt Q7Z4W1),1.01 ± 0.031,1.02 ± 0.048
G3XAI2 and related entries (UniProt P07942),0.996 ± 0.021,0.983 ± 0.024
J3KQJ1 and related entries (UniProt Q8NBJ7),1.01 ± 0.024,1 ± 0.029
J3KPP0 and related entries (UniProt Q9Y6G3),1.01 ± 0.084,0.938 ± 0.068
G5E9G0 and related entries (UniProt P39023),1.01 ± 0.046,0.987 ± 0.037
I3L165 and related entries (UniProt O14964),0.9849 ± 0.0048,0.982 ± 0.021
H3BM21 and related entries (UniProt P05106+I3L4X8+H3BM21),0.992 ± 0.031,0.9977 ± 0.0079
H0YNG3 and related entries (UniProt P67812),1.01 ± 0.041,1.04 ± 0.043
H0YBI6 and related entries (UniProt Q86VQ6),1.02 ± 0.011,0.99 ± 0.021
H0Y398 and related entries (UniProt Q9H8U3),0.974 ± 0.031,1.01 ± 0.055
H3BVD9 and related entries (UniProt O43278),1.016 ± 0.01,1 ± 0.019
K7EJ78 and related entries (UniProt P62841),1.03 ± 0.06,1.05 ± 0.044
H3BMQ0 and related entries (UniProt P49815),0.9806 ± 0.0077,0.967 ± 0.027
K4DI93 and related entries (UniProt Q13620),1.01 ± 0.013,1 ± 0.0078
J3QT87 and related entries (UniProt Q96SW2),0.962 ± 0.027,0.976 ± 0.052
G3V5T0 and related entries (UniProt O43708),1.01 ± 0.021,0.975 ± 0.063
G5E994 and related entries (UniProt Q5VW38),1.01 ± 0.021,1.004 ± 0.0084
H7C5A7 and related entries (UniProt O14734),1.01 ± 0.022,0.983 ± 0.01
H0Y612 and related entries (UniProt Q9UPN9),1.01 ± 0.033,1.01 ± 0.029
J3KPC5 and related entries (UniProt P47736),0.969 ± 0.016,0.983 ± 0.02
UniProt G3V599,0.982 ± 0.011,0.986 ± 0.037
J3KQ40 and related entries (UniProt O95759),1.01 ± 0.014,1 ± 0.021

# Whole records from above. Values in the order: NP40-soluble protein abundance (concentration: 0.1mM)	NP40-soluble protein abundance (concentration: 0.5mM)
# H3BM21 and related entries (UniProt P05106+I3L4X8+H3BM21) is entered as 0.992 ± 0.031	0.9977 ± 0.0079
# H0Y398 and related entries (UniProt Q9H8U3) is entered as 0.974 ± 0.031	1.01 ± 0.055
# H0Y612 and related entries (UniProt Q9UPN9) is entered as 1.01 ± 0.033	1.01 ± 0.029
# J3KQ40 and related entries (UniProt O95759) is entered as 1.01 ± 0.014	1 ± 0.021

# More results:

Target,NP40-soluble protein abundance (concentration: 0.1mM),NP40-soluble protein abundance (concentration: 0.5mM)
H3BPE7 and related entries (UniProt P35637),0.983 ± 0.033,1.05 ± 0.07
H0YMI4 and related entries (UniProt Q9Y6I4),1.025 ± 0.0045,1 ± 0.044
H0Y9X1 and related entries (UniProt Q96EY4),0.961 ± 0.011,0.966 ± 0.012
J3KSZ8 and related entries (UniProt Q68DK7),0.985 ± 0.012,1.01 ± 0.018
G3V5P0 and related entries (UniProt Q86UP2),0.993 ± 0.035,1.01 ± 0.067
G8JLH9 and related entries (UniProt P40763),1.006 ± 0.0092,1 ± 0.029
H7C5G1 and related entries (UniProt Q2TAA2),0.989 ± 0.014,1.01 ± 0.02
H3BNT4 and related entries (UniProt Q99547),0.982 ± 0.01,0.983 ± 0.021
H3BSM7 and related entries (UniProt Q96GQ5),1.02 ± 0.035,1.01 ± 0.046
H0YAA3 and related entries (UniProt Q9HAD4),1.05 ± 0.029,0.972 ± 0.044
H0YN99 and related entries (UniProt Q9H792),1.01 ± 0.012,1.02 ± 0.024
J3QTA2 and related entries (UniProt Q99933),0.982 ± 0.02,0.994 ± 0.016
H0Y8X4 and related entries (UniProt O43598),1.03 ± 0.012,1.021 ± 0.005
I3L072 and related entries (UniProt Q9BSJ5),0.989 ± 0.037,1 ± 0.038
H3BLS7 and related entries (UniProt Q5THJ4),0.964 ± 0.087,0.971 ± 0.041
J3QQJ0 and related entries (UniProt Q9UHR5),0.958 ± 0.013,0.978 ± 0.062
I3L448 and related entries (UniProt Q5TC12),1 ± 0.017,0.9801 ± 0.0085
H7BZJ3 and related entries (UniProt P30101),0.9977 ± 0.0065,1.02 ± 0.053
G5E9V6 and related entries (UniProt Q8IUR7),0.997 ± 0.012,0.983 ± 0.045
I3L112 and related entries (UniProt P52429),1.05 ± 0.041,1 ± 0.075
G5EA36 and related entries (UniProt P30260),0.988 ± 0.056,0.971 ± 0.041
I3L0N3 and related entries (UniProt P46459),1.01 ± 0.025,0.991 ± 0.04
